Data source: PubChem BioAssay AID602196 (INSERM, 2012)
This is a random part of about 23,000 reagents tested. Over the whole deposit, 455 (2%) are marked active. 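Active includes both protection and sensitisation; some change values fall well beyond the stated -50 to +50 range.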 Entries without a mark were called inactive. Not all columns of the deposit are shown. Not given: the amount of reagent.

- Aim: 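Modifiers of cisplatin sensitivity in A549 cells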
- Cells: human A549 lung cancer cells
- Knock-down reagent: siRNA pair against human genes
- Timing: 48 h transfection before cisplatin; time from cisplatin to read-out not stated
- Conditions: cisplatin at a dose killing half of control-siRNA cells; exact dose and duration not given
- Detection: 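Shift in cisplatin death relative to control siRNA, from -50 (all cells die) to +50 (no cells die); siRNAs harmful on their own scored 0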
- Direction: two-siRNA summed score (-2 to +2): higher = both siRNAs protect from cisplatin killing; -2 means both sensitise; mean protection from cisplatin (shift in death): higher = protection from cisplatin killing
- Call rule: 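Each siRNA scores 0 if harmful alone by LDH or WST-1, otherwise +1 if it reduces and -1 if it increases cisplatin killing; a gene is active when both siRNAs agree (sum +2 or -2)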
- Calls: active = both siRNAs shift cisplatin killing the same way; inactive = no consistent shift, or siRNA harmful alone

CYP1B1 (cytochrome P450 family 1 subfamily B member 1) | two-siRNA summed score (-2 to +2): 0; mean protection from cisplatin (shift in death) (%): -12.6
CCNDBP1 (cyclin D1 binding protein 1) | two-siRNA summed score (-2 to +2): 0; mean protection from cisplatin (shift in death) (%): 12.3
MGC10646 | two-siRNA summed score (-2 to +2): 0; mean protection from cisplatin (shift in death) (%): 1.3
SLC52A2 | two-siRNA summed score (-2 to +2): 0; mean protection from cisplatin (shift in death) (%): -3.9
WFDC10A (WAP four-disulfide core domain 10A) | two-siRNA summed score (-2 to +2): 1; mean protection from cisplatin (shift in death) (%): 13.3
NMI (N-myc and STAT interactor) | two-siRNA summed score (-2 to +2): 0; mean protection from cisplatin (shift in death) (%): 3.4
GUCA2B (guanylate cyclase activator 2B) | two-siRNA summed score (-2 to +2): -1; mean protection from cisplatin (shift in death) (%): -23.8
MDK (midkine) | two-siRNA summed score (-2 to +2): 0; mean protection from cisplatin (shift in death) (%): -0.2
IFNK (interferon kappa) | two-siRNA summed score (-2 to +2): 0; mean protection from cisplatin (shift in death) (%): 6.5
VSTM1 (V-set and transmembrane domain containing 1) | two-siRNA summed score (-2 to +2): 0; mean protection from cisplatin (shift in death) (%): -2.4
BTBD10 (BTB domain containing 10) | two-siRNA summed score (-2 to +2): 0; mean protection from cisplatin (shift in death) (%): 8.7
DEFB104A (defensin beta 104A) | two-siRNA summed score (-2 to +2): 0; mean protection from cisplatin (shift in death) (%): 9.5

Targets listed so far whose gene name begins with M or m (2):
MGC10646 | two-siRNA summed score (-2 to +2): 0; mean protection from cisplatin (shift in death) (%): 1.3
MDK (midkine) | two-siRNA summed score (-2 to +2): 0; mean protection from cisplatin (shift in death) (%): -0.2
